Over roughly 1,600 compounds, “plate-normalized OD600 growth (mean of duplicates)” has its median near 0.31; the lowest 2% begin near 0.23. The list shows a part of the results.
Tested on: Escherichia coli BW25113
Test: plate-normalized OD600 growth (mean of duplicates) (OD600 (normalized)); higher = more growth (less inhibition)
Conditions: 10 µM
Protocol: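 E. coli BW25113 in LB (100 µl, 96-well, no shaking) was exposed to 10 µM of each compound (here the ChemBridge subset of a ~30,000-member library) and grown at 37°C for 24 h or 15°C for 48 h, in duplicate. Growth was read as OD600 and the duplicate ODs were normalized across screening plates to correct plate-to-plate variation.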

SMILES	plate-normalized OD600 growth (temperature: 15°C, 48 h)	plate-normalized OD600 growth (temperature: 37°C, 24 h)
CCN(CC)CCNC(=O)c1cc([N+](=O)[O-])c(N(C)C)cc1OC	0.258	0.607
CCOc1ccccc1NS(=O)(=O)N(C)C	0.258	0.62
COc1cccc(OC)c1C(=O)N1CCN(C(=O)CC(C)C)CC1	0.237	0.622
Fc1ccccc1N1CCN(CCCc2ccccc2)CC1	0.248	0.618
c1coc(CN2CCN(C3CCCCCC3)CC2)c1	0.246	0.612
COc1ccc(CC(=O)N2CCOCC2)cc1	0.245	0.631
COc1ccc(C(=O)c2sc3nc(C)cc(C)c3c2N)cc1	0.263	0.644
Cc1cc(C)nc(SCc2csc(N)n2)n1	0.243	0.61
CC1CCCCC1NCc1ccc([N+](=O)[O-])cc1 (stereo not given)	0.251	0.62
CN1CCCN(Cc2ccc3c(c2)OCO3)CC1	0.271	0.64
CCC(CC)NC(=O)N1CCOCC1	0.238	0.618
COCc1cc(=O)n2[nH]c(Cc3ccccc3)c(-c3ccc(OC)cc3)c2n1	0.232	0.616
CCOC(=O)N1CCN(Cc2ccc(N(C)C)cc2)CC1	0.219	0.58
Cc1cc(-c2ccc([N+](=O)[O-])cc2)c(C#N)c(N)n1	0.229	0.596
Cc1cc(=O)[nH]c(SCC(=O)c2ccc(F)cc2)n1	0.254	0.652
COc1ccc(C(=O)NCCCN2CCOCC2)cc1	0.255	0.631
CN(C)c1nc(N)nc(-c2ccco2)n1	0.226	0.632
O=Cc1cc2c3c(c1O)CCCN3CCC2	0.232	0.598
Cc1c(N=CN(C)C)c(=O)n(-c2ccccc2)n1C	0.261	0.634
CC(=O)Nc1cccc(NC(=O)c2cccs2)c1	0.233	0.614
CCC(C)NC(=O)C(Cc1ccc([N+](=O)[O-])cc1)N1C(=O)c2ccccc2C1=O (stereo not given)	0.253	0.618
Cc1ccc(C(=O)N2CCN(c3ccccc3)CC2)cc1	0.268	0.629
Cc1ccc(N2C(=O)CC(N3CCN(c4ccc([N+](=O)[O-])cc4)CC3)C2=O)c(C)c1 (stereo not given)	0.218	0.612
O=C(NC1CCCCC1NC(=O)C1CC1c1ccccc1)C1CC1c1ccccc1 (stereo not given)	0.264	0.622
CC(=O)N1CCN(C2CCN(CCc3ccccc3)CC2)CC1	0.249	0.63
C/C=C(\CS(=O)(=O)c1ccccc1)S(=O)(=O)c1ccccc1	0.246	0.624
CCN(CC)C(=O)c1sc2ccccc2c1Cl	0.246	0.603
Cc1ccc(C(=O)NCC(O)c2ccccc2)cc1 (stereo not given)	0.243	0.6
O=C(Nc1nc(-c2ccccc2)cs1)c1c(O)c2ccccc2[nH]c1=O	0.252	0.62
CSc1ccc(CN2CCN(S(=O)(=O)c3ccc([N+](=O)[O-])cc3)CC2)cc1	0.27	0.625

Three compounds from above, sorted by formula weight, high to low:
SMILES	plate-normalized OD600 growth (temperature: 15°C, 48 h)	plate-normalized OD600 growth (temperature: 37°C, 24 h)
O=C(NC1CCCCC1NC(=O)C1CC1c1ccccc1)C1CC1c1ccccc1 (stereo not given)	0.264	0.622
Cc1cc(C)nc(SCc2csc(N)n2)n1	0.243	0.61
CCC(CC)NC(=O)N1CCOCC1	0.238	0.618
